Results: PMC5996148
This is one part of the list. For some assays here: Construct or isoform of the protein are uncertain.

What was measured:
Test in all cases: protein microarray (ProtoArray v5.0), streptavidin-Alexa Fluor 647
Conditions in all cases: 3'-biotin; 20 mM Tris (pH 7.5), 5 mM MgCl2, 100 mM KCl, 0.1% Tween-20, A/T-rich and random oligonucleotide blockers; temperature not stated; high values mean tight binding
TM2D2 (human) = tested on: TM2D2 (human)
TM4SF19 (human) = tested on: TM4SF19 (human)
TM4SF4 (human) = tested on: TM4SF4 (human)
TMCC2 (human) = tested on: TMCC2 (human)
TMCO2 (human) = tested on: TMCO2 (human)
TMCO5 (human) = tested on: TMCO5 (human)
TMED1 (human) = tested on: TMED1 (human)
TMED2 (human) = tested on: TMED2 (human)
TMEM101 (human) = tested on: TMEM101 (human)
TMEM103 (human) = tested on: TMEM103 (human)
TMEM129 (human) = tested on: TMEM129 (human)
TMEM138 (human) = tested on: TMEM138 (human)
TMEM139 (human) = tested on: TMEM139 (human)
TMEM149 (human) = tested on: TMEM149 (human)
TMEM14C (human) = tested on: TMEM14C (human)
TMEM159 (human) = tested on: TMEM159 (human)
TMEM17 (human) = tested on: TMEM17 (human)
TMEM170 = molecular target: T1, TMEM170 (UniProt Q8WVE7)
T1 sequence: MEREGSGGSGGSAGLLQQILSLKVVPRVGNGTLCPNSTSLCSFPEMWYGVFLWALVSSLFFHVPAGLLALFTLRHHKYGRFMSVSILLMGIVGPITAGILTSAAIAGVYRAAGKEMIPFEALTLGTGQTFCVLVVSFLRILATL

TMEM174 (human) = tested on: TMEM174 (human)
TMEM176A (human) = tested on: TMEM176A (human)

GGGAGGCTGAGGCAGG [G4-1 biotinylated (PQS2)]
binding signal (TM2D2 (human)): -0.303 z-score
binding signal (TM4SF19 (human)): -0.319 z-score
binding signal (TM4SF4 (human)): -0.325 z-score
binding signal (TMCC2 (human)): -0.29 z-score
binding signal (TMCO2 (human)): -0.285 z-score
binding signal (TMCO5 (human)): -0.234 z-score
binding signal (TMED1 (human)): -0.303 z-score
binding signal (TMED2 (human)): -0.3 z-score
binding signal (TMEM101 (human)): -0.306 z-score
binding signal (TMEM103 (human)): -0.319 z-score
binding signal (TMEM129 (human)): -0.322 z-score
binding signal (TMEM138 (human)): -0.344 z-score
binding signal (TMEM139 (human)): -0.302 z-score
binding signal (TMEM149 (human)): -0.335 z-score
binding signal (TMEM14C (human)): -0.326 z-score
binding signal (TMEM159 (human)): -0.355 z-score
binding signal (TMEM17 (human)): -0.342 z-score
binding signal (TMEM170): -0.326 z-score
binding signal (TMEM174 (human)): -0.265 z-score
binding signal (TMEM176A (human)): -0.317 z-score
